Reference: EP0252524A2, “Aryl- and aralkylamide- derivatives of Omega- (substituted-phenyloxy)-alkanoic acids as inhibitors of acyl-coa: cholesterol acyltransferase and pharmaceuticals containing them” (WARNER-LAMBERT COMPANY, priority 1986, dated 1988)
pIC50: −log10 of the molar value. For at least one compound, name, drawing or mass did not settle the structure.

Biological target: acyl-CoA:cholesterol acyltransferase (ACAT)
Assay: in vitro ACAT inhibition test: radio-labeled cholesteryl oleate formed from radio-labeled oleic acid in intestinal microsomes
Type: biochemical
Conditions: concentration required to inhibit cholesteryl oleate formation to 50% of control; tissue preparation containing rabbit intestinal microsomes
Experimental: The ability of representative compounds of the present invention to inhibit ACAT was measured using an in vitro test more fully described in Field, F. J. and Salone, R. G., Biochemica et Biophysica 712: 557-570 (1982). The test assesses the ability of a test compound to inhibit the acylation of cholesterol by oleic acid by measuring the amount of radio-labeled cholesterol oleate formed from radio-labeled oleic acid in a tissue preparation containing rabbit intestinal microsomes.
The data appear in the Table where they are expressed as IC₅₀ values; i.e. the concentration of test compound required to inhibit cholesteryl oleate formation to 50% of control.

SMILES: CCCCc1ccc(OCCCC(C)(C)C(=O)NCCOc2ccccn2)cc1 [Example 6, 5-(4-butylphenoxy)-2,2-dimethyl-N-[2-(2-pyridinyloxy)ethyl]pentanamide]
- pIC50: 5.15
